# Measurements: the supplement of paper PMC6411743
# By UniProt entry, the sequences of proteins in these tests, tags left out. Where a name states a change or a piece, a line headed by the entry shows the natural chain unless it says otherwise.
# UniProt Q9BRX2, whole entry: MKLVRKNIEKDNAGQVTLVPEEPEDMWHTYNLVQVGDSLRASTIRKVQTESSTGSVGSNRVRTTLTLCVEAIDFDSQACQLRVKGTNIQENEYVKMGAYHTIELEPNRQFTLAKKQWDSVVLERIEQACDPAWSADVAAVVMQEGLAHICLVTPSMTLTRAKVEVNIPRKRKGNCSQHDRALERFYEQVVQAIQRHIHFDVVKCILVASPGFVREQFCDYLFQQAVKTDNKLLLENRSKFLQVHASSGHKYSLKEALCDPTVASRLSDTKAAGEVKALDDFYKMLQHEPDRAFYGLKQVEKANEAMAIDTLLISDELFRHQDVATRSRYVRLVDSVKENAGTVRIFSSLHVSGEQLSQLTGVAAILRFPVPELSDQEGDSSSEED
# UniProt Q9BVP2: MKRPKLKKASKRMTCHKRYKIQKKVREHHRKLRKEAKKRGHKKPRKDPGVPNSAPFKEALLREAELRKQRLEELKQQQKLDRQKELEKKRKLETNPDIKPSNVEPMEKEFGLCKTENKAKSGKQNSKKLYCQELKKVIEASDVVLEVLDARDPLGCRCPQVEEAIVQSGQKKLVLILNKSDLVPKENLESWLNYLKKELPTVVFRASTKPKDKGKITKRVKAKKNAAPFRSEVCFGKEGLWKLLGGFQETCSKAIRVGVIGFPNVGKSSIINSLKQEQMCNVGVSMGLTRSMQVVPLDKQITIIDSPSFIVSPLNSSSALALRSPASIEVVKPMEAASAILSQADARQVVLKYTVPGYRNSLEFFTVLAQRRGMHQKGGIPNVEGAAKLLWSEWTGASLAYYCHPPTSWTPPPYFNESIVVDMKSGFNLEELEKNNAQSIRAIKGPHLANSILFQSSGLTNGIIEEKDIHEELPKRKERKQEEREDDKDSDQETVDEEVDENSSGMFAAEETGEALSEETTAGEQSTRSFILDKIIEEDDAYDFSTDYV
# UniProt Q9BW71: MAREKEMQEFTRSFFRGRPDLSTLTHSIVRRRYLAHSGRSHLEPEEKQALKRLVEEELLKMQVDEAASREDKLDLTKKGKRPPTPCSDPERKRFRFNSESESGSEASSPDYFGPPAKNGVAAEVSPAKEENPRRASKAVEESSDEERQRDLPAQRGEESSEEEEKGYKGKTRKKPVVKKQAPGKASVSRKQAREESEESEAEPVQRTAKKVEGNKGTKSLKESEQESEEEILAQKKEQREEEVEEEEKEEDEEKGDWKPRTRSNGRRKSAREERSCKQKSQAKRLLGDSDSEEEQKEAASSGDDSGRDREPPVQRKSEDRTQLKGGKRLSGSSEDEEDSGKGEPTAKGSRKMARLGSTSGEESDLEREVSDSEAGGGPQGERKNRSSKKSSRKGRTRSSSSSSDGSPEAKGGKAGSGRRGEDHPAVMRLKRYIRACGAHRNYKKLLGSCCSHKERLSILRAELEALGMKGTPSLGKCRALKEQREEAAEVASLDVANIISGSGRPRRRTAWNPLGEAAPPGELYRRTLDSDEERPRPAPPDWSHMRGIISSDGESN
# UniProt Q99704: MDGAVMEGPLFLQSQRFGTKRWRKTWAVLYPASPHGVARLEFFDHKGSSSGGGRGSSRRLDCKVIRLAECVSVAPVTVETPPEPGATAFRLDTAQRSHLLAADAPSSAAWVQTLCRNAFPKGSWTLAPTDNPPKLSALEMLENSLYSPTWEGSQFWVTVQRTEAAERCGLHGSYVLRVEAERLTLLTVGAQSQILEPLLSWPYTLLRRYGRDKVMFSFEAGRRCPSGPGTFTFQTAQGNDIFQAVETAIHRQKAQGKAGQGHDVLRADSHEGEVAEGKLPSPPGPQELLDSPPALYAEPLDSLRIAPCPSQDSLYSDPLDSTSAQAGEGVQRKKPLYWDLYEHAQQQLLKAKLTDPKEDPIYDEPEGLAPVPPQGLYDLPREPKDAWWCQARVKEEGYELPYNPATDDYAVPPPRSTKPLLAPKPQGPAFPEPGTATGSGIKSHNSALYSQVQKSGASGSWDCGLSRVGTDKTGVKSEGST
# UniProt Q9BW85: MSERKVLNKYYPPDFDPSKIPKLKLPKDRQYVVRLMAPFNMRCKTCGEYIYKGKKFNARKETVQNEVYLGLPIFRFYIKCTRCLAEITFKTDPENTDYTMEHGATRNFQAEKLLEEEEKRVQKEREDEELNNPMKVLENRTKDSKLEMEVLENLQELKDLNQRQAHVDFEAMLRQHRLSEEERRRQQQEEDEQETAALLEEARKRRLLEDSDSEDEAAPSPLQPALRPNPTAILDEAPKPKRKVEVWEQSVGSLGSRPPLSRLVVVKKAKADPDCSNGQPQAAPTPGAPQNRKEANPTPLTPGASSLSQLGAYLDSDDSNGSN
# UniProt Q99470: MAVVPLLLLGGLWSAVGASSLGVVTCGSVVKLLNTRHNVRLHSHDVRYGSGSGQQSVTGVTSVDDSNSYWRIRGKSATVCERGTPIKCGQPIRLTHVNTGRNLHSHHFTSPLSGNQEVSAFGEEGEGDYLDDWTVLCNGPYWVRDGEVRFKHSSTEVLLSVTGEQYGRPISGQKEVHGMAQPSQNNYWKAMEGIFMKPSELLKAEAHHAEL
# UniProt Q99614: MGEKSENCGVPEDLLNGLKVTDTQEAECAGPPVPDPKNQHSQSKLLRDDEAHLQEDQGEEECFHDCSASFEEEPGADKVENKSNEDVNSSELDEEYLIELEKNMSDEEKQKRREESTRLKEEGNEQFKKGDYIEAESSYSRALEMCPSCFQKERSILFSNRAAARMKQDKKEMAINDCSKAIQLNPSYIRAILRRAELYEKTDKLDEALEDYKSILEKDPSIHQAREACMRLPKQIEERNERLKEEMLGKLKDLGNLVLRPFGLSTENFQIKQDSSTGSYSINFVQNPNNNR
# UniProt Q9BUV8: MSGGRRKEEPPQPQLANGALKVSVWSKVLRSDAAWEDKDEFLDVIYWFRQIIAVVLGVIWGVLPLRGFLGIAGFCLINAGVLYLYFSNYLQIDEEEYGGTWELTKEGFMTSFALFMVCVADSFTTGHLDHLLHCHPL
# UniProt Q9BQ52: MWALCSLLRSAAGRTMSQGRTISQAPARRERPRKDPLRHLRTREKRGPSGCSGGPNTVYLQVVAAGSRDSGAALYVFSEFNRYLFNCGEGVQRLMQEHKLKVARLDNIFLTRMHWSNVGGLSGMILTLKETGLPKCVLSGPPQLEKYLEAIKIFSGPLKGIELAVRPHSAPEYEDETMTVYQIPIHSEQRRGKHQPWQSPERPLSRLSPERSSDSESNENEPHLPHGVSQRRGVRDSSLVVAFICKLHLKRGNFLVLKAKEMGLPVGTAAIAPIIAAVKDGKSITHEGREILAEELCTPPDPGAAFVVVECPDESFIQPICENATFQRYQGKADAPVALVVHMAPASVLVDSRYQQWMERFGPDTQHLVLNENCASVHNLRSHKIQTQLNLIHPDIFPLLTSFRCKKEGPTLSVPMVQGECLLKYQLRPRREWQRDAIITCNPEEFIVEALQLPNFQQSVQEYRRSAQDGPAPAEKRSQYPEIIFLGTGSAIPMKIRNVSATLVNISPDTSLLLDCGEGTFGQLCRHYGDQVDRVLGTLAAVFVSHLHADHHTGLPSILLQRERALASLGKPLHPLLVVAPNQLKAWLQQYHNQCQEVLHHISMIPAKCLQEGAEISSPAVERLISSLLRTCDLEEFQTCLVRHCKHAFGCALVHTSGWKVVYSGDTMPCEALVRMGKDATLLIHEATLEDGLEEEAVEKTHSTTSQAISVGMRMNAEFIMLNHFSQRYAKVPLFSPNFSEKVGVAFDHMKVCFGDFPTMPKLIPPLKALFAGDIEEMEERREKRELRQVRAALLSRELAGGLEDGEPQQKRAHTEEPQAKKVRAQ
# UniProt Q99661: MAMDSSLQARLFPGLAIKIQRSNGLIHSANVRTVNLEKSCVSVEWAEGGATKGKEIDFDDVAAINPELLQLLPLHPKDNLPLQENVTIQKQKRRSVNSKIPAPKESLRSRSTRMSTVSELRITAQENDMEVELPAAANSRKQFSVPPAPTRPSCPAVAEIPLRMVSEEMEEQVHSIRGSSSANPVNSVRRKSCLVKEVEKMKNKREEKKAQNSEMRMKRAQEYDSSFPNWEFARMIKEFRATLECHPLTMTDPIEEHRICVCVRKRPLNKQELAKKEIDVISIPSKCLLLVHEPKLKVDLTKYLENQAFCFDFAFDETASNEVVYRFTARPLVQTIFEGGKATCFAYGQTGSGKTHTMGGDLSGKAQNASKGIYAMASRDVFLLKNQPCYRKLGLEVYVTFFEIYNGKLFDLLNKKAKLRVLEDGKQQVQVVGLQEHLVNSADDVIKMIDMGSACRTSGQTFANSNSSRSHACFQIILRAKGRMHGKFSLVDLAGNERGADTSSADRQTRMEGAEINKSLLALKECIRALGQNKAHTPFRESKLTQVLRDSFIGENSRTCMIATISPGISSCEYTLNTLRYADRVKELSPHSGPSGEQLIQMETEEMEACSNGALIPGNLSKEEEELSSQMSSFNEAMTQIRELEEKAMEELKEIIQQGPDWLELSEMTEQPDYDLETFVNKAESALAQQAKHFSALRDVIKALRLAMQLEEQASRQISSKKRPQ
# UniProt Q99471, whole entry: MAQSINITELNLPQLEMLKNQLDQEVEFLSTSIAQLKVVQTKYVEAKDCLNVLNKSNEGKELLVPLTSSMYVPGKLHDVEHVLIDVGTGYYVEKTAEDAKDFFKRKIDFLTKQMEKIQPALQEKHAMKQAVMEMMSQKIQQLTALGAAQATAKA
# UniProt Q9BX68: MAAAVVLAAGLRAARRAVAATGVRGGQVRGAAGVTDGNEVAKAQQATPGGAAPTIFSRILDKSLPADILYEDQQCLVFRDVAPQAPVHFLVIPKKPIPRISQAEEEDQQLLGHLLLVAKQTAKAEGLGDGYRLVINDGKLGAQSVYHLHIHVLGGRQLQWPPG
# UniProt Q99816: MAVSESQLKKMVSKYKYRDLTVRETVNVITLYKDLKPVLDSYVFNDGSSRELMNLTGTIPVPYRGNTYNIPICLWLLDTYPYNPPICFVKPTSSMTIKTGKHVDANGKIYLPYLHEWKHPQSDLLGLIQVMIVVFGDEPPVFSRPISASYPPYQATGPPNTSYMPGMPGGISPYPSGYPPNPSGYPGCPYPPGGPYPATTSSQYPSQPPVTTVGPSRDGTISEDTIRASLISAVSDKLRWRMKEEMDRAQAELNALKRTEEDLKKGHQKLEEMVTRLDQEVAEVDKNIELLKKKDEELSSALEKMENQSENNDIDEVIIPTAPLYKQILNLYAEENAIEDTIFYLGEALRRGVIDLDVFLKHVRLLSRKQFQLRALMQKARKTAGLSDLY
# UniProt Q9BSU1: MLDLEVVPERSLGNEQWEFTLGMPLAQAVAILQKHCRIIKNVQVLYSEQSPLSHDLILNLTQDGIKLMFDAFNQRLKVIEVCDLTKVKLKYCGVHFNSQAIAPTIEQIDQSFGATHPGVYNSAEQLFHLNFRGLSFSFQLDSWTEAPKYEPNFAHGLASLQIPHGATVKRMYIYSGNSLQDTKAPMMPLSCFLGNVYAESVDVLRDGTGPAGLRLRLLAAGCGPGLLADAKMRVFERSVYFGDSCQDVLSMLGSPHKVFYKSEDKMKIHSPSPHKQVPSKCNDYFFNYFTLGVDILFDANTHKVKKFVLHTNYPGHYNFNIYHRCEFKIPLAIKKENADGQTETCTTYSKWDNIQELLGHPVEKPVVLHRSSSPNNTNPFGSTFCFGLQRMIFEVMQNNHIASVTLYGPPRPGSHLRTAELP
# UniProt Q9BXW6, whole entry: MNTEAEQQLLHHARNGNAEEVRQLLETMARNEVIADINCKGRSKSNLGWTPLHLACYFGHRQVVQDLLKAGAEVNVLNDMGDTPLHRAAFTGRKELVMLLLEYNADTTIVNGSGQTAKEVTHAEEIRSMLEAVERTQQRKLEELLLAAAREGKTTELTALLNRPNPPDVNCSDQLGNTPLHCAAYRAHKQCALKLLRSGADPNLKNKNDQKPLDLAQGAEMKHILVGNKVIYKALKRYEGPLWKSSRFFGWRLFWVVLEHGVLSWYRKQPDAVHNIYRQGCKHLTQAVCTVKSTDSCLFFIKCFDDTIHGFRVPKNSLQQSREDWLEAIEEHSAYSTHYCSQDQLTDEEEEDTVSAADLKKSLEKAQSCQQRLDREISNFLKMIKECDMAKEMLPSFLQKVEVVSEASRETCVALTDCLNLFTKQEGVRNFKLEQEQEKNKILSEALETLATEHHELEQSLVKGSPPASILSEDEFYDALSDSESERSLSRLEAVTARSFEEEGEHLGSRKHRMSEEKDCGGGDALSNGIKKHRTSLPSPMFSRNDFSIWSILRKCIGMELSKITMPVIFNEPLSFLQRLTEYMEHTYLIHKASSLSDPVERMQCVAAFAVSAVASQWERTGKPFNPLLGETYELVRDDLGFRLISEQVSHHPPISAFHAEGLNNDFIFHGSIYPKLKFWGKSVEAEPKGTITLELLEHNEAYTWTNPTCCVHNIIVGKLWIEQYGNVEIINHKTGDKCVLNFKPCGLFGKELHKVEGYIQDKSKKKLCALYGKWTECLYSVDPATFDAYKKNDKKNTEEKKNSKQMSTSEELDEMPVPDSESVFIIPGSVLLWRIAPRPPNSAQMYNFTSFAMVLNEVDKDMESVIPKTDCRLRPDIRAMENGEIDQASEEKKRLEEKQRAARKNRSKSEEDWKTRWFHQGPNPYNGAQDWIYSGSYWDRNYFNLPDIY
# ± gives the standard deviation of the averaged measurements. Only a part is listed here, and it is no random draw. Most entries show no effect beyond the scatter of the controls.
# Compound: Nc1ncnc2c1ncn2[C@@H]1O[C@H](COP(=O)(O)OP(=O)(O)NP(=O)(O)O)[C@@H](O)[C@H]1O [adenylyl imidodiphosphate]
# Assay: NP40-soluble protein abundance relative to vehicle (solubility fold change) (ratio); higher = more soluble protein in presence of AMP-PNP
# Outline: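 Jurkat crude lysate (Dounce-homogenised) was treated with eight concentrations from 0.1 to 10 mM for 10 min at room temperature, then 3 min at 37 °C. It was solubilised with 0.8% NP40 and benzonase (60 min, 4 °C) and ultracentrifuged, and the supernatant was TMT-labelled for LC-MS/MS. Intensities were vsn-normalised, and the value is the fold change against the NP40-processed vehicle per replicate, from three independent experiments.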
Target,NP40-soluble protein abundance (concentration: 0.1mM),NP40-soluble protein abundance (concentration: 0.5mM)
PELO (UniProt Q9BRX2),0.991 ± 0.024,0.956 ± 0.033
UniProt Q9BVP2 and related entries,1.04 ± 0.028,1.04 ± 0.061
HIRIP3 (UniProt Q9BW71),0.976 ± 0.043,1.03 ± 0.061
BCL2L13 (UniProt Q9BXK5),0.96 ± 0.018,1 ± 0.059
DOK1 (UniProt Q99704),1.02 ± 0.021,1 ± 0.018
UniProt Q9BW85,0.97 ± 0.043,1.02 ± 0.089
PI4K2A (UniProt Q9BTU6),1.01 ± 0.02,0.966 ± 0.049
SDF2 (UniProt Q99470),0.97 ± 0.045,0.975 ± 0.033
UniProt Q9BQT9 and related entries,0.996 ± 0.018,1.01 ± 0.04
TTC1 (UniProt Q99614),1 ± 0.027,0.999 ± 0.02
FUNDC2 (UniProt Q9BWH2),0.937 ± 0.061,1.04 ± 0.14
MRPS26 (UniProt Q9BYN8),1.02 ± 0.057,1.09 ± 0.14
UniProt Q9BUV8 and related entries,0.988 ± 0.024,1.059 ± 0.0084
SETD2 (UniProt Q9BYW2),1.02 ± 0.018,0.995 ± 0.032
UniProt Q9BQ52 and related entries,1.01 ± 0.01,0.9986 ± 0.0086
KIF2C (UniProt Q99661),0.978 ± 0.013,1.03 ± 0.033
PFDN5 (UniProt Q99471),1.02 ± 0.048,1.05 ± 0.094
HINT2 (UniProt Q9BX68),0.99 ± 0.021,1.02 ± 0.033
TSG101 (UniProt Q99816),0.987 ± 0.016,1 ± 0.025
SEC62 (UniProt Q99442),1 ± 0.042,0.971 ± 0.061
C16orf70 (UniProt Q9BSU1),0.998 ± 0.022,1.01 ± 0.05
OSBPL1A (UniProt Q9BXW6),0.993 ± 0.022,1.017 ± 0.0015

# An excerpt of these results, bar-delimited.
Target | NP40-soluble protein abundance (concentration: 0.1mM) | NP40-soluble protein abundance (concentration: 0.5mM)
UniProt Q9BUV8 and related entries | 0.988 ± 0.024 | 1.059 ± 0.0084
SETD2 (UniProt Q9BYW2) | 1.02 ± 0.018 | 0.995 ± 0.032
